PubChem BioAssay AID1259254 – NCATS | 2017
The deposit covers about 59,000 reagents; shown is an unselected part. Of all reagents, about 1,550 (2.6%) got an active call. 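G2 share is only a proxy for re-replication; each gene was hit by three separate siRNAs, and active genes were retested.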 Raw values are not corrected between plates. Reagents against one gene are numbered here. Not stated in the record: the amount of reagent.

Test: 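Genome-wide screen for genes that prevent DNA re-replication in cancer cells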 (primary screen)
Cells: human HCT116 colorectal cancer cells
Knock-down reagent: single siRNA against human genes
Time to read-out: 3 days
Read-out: 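Nuclei stained with Hoechst and imaged; cell-cycle phase assigned by DNA content; G2 share scaled per plate, non-targeting siRNA 0%, GMNN siRNA 100%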
Scale: G2 robust z-score and G2 cells, % of GMNN control: higher = more G2 cells, more excess DNA replication; raw share of cells in G2: higher = larger share of cells with G2 DNA content
Call rule: 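Active siRNAs have a G2 robust z of 5 or more median absolute deviations over the median, which in these data means about 38% or higher of GMNN control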

gene | reagent no. | G2 robust z-score | G2 cells, % of GMNN control | raw share of cells in G2 (%) | call
DOP1B | 1 | -0.226 | 1.37 | 5.95 | inactive
DOP1B | 2 | 1.02 | 10.1 | 8.17 | inactive
DOP1B | 3 | -0.351 | 0.5 | 3.59 | inactive
TCF25 | 1 | 0.274 | 4.9 | 5.01 | inactive
TCF25 | 2 | -1.31 | -6.22 | 2.55 | inactive
TCF25 | 3 | 0.634 | 7.43 | 7.2 | inactive
MIF4GD | 1 | 0.52 | 6.62 | 8.39 | inactive
MIF4GD | 2 | -0.762 | -2.4 | 3.5 | inactive
MIF4GD | 3 | 5.45 | 41.3 | 19.2 | active
ALOXE3 | 1 | -1.5 | -7.62 | 1.46 | inactive
ALOXE3 | 2 | 2.92 | 23.5 | 15.4 | inactive
ALOXE3 | 3 | -1.12 | -4.9 | 2.61 | inactive
PTPRH | 1 | -0.149 | 1.92 | 5.42 | inactive
PTPRH | 2 | 2.87 | 23.1 | 11.3 | inactive
PTPRH | 3 | -0.17 | 1.77 | 4.03 | inactive
CCDC24 | 1 | -0.191 | 1.63 | 4.37 | inactive
CCDC24 | 2 | -0.625 | -1.43 | 2.47 | inactive
CCDC24 | 3 | 0.0402 | 3.25 | 4.2 | inactive
LYG2 | 1 | -0.614 | -1.35 | 3.09 | inactive
LYG2 | 2 | -0.953 | -3.74 | 1.85 | inactive
LYG2 | 3 | 2.78 | 22.5 | 10.4 | inactive
TOPAZ1 | 1 | 1.43 | 13 | 8.24 | inactive
TOPAZ1 | 2 | 4.9 | 37.5 | 19.7 | inactive
TOPAZ1 | 3 | 0.473 | 6.3 | 7.33 | inactive
URAD | 1 | -0.871 | -3.16 | 2.58 | inactive
URAD | 2 | -0.748 | -2.29 | 2.37 | inactive
URAD | 3 | 4.22 | 32.6 | 13.4 | inactive
CRACR2B | 1 | -0.628 | -1.45 | 2.83 | inactive
CRACR2B | 2 | -0.572 | -1.05 | 3.26 | inactive
CRACR2B | 3 | 1.19 | 11.3 | 7.43 | inactive
TNS1 | 1 | 1.96 | 16.8 | 12.6 | inactive
TNS1 | 2 | 3.12 | 24.9 | 13.8 | inactive
TNS1 | 3 | 0.25 | 4.73 | 5.02 | inactive
MROH5 | 1 | -0.41 | 0.085 | 3.8 | inactive
MROH5 | 2 | -0.487 | -0.457 | 3.21 | inactive
MROH5 | 3 | -1.49 | -7.52 | 1.41 | inactive
ADCYAP1R1 | 1 | 4.22 | 32.7 | 17.5 | inactive
ADCYAP1R1 | 2 | 1.29 | 12 | 8.73 | inactive
ADCYAP1R1 | 3 | 0.812 | 8.68 | 5.93 | inactive
AGR3 | 1 | 0.572 | 6.99 | 6.11 | inactive
AGR3 | 2 | 0.473 | 6.29 | 5.07 | inactive
AGR3 | 3 | -0.434 | -0.0855 | 2.74 | inactive
RAMP2 | 1 | -0.358 | 0.45 | 5.89 | inactive
RAMP2 | 2 | -1.44 | -7.15 | 3.66 | inactive
RAMP2 | 3 | -0.976 | -3.9 | 2.58 | inactive
PTGIR | 1 | -0.582 | -1.13 | 5.44 | inactive
PTGIR | 2 | -0.51 | -0.623 | 4.3 | inactive
PTGIR | 3 | -0.711 | -2.03 | 2.65 | inactive
HACD3 | 1 | -1.44 | -7.13 | 1.05 | inactive
HACD3 | 2 | -0.521 | -0.699 | 3.98 | inactive
HACD3 | 3 | 1.29 | 12 | 7.16 | inactive
KRABD4 | 1 | -0.497 | -0.532 | 4.25 | inactive
KRABD4 | 2 | -0.968 | -3.84 | 4.75 | inactive
KRABD4 | 3 | -0.214 | 1.46 | 4.94 | inactive
KIAA0232 | 1 | 1.05 | 10.3 | 10 | inactive
KIAA0232 | 2 | 0.444 | 6.09 | 6.49 | inactive
KIAA0232 | 3 | -0.822 | -2.82 | 2.38 | inactive
AADAT | 1 | 2.71 | 22 | 16 | inactive
AADAT | 2 | 0.42 | 5.92 | 6.43 | inactive
AADAT | 3 | -0.213 | 1.47 | 4.36 | inactive
KCNK12 | 1 | 1.99 | 17 | 11.5 | inactive
KCNK12 | 2 | 0.331 | 5.3 | 6.57 | inactive
KCNK12 | 3 | -0.976 | -3.9 | 2.85 | inactive
UTP15 | 1 | 4.27 | 33 | 15.1 | inactive
UTP15 | 2 | 4.83 | 37 | 14.4 | inactive
UTP15 | 3 | -0.464 | -0.294 | 2.32 | inactive
SH3BGRL | 1 | 0.929 | 9.5 | 9.01 | inactive
SH3BGRL | 2 | 2.28 | 19 | 11.7 | inactive
SH3BGRL | 3 | 2.2 | 18.4 | 10 | inactive

9 of these entries, set out differently:
gene,reagent no.,G2 robust z-score,"G2 cells, % of GMNN control",raw share of cells in G2 (%),call
KIAA0232,3,-0.822,-2.82,2.38,inactive
AADAT,1,2.71,22,16,inactive
AADAT,2,0.42,5.92,6.43,inactive
AADAT,3,-0.213,1.47,4.36,inactive
KCNK12,1,1.99,17,11.5,inactive
KCNK12,2,0.331,5.3,6.57,inactive
KCNK12,3,-0.976,-3.9,2.85,inactive
UTP15,1,4.27,33,15.1,inactive
UTP15,2,4.83,37,14.4,inactive
